For some of these results: No signal at the amounts used counts as a negative. At least one verdict rests on a figure or table, not on a statement of the authors. For some of these results: The exact form of at least one protein or probe is not confirmed.
What was measured:
PD-L1 on A549 exosomes = PD-L1 on A549 exosomes (UniProt Q9NZQ7); assay: proximity ligation/RCA/TR-FRET on exosomes; conditions: 10 nM aptamer with Cho primer, assay LOD 0.77 ng/uL; 1x PBS, 5 mM MgCl2, 0.2% BSA (w/v), 37 C, 1 h; exosome-coated microspheres blocked with glycine/BSA; pH not stated; native protein; single-stranded DNA
CD63 on SH-SY5Y exosomes [1] = target: CD63 on SH-SY5Y exosomes (UniProt P08962); assay: proximity ligation/RCA/TR-FRET on exosomes; conditions: 10 nM aptamer with Cho primer, assay LOD 0.46 ng/uL exosomes in buffer, 1.56 in FBS; 1x PBS, 5 mM MgCl2, 0.2% BSA (w/v), 37 C, 1 h; exosome-coated microspheres blocked with glycine/BSA; pH not stated; native protein; single-stranded DNA
CD63 on SH-SY5Y exosomes [2] = target: CD63 on SH-SY5Y exosomes (UniProt P08962); assay: flow cytometry on exosome-coated microspheres; conditions: random-sequence control, 5 mM Mg2+; 1x PBS, 5 mM MgCl2, 0.2% BSA (w/v), 37 C, 1 h; exosome-coated microspheres blocked with glycine/BSA; pH not stated; native protein; label: 5' Cy5; single-stranded DNA
HER2 on A549 exosomes = HER2 on A549 exosomes (UniProt P04626); assay: proximity ligation/RCA/TR-FRET on exosomes; conditions: 10 nM aptamer with Cho primer, assay LOD 1.1 ng/uL; 1x PBS, 5 mM MgCl2, 0.2% BSA (w/v), 37 C, 1 h; exosome-coated microspheres blocked with glycine/BSA; pH not stated; native protein; single-stranded DNA

The chains behind the UniProt entries cited, without tags or fusion partners. Residues count along the entry.
UniProt Q9NZQ7, 19-290: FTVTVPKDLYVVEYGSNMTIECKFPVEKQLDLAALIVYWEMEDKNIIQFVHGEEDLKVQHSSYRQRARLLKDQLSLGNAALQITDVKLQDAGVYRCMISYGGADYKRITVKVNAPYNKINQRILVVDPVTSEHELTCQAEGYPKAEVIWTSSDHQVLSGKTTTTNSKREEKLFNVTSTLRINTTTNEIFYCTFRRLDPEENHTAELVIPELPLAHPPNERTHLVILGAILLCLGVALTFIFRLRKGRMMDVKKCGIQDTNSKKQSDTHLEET
UniProt P08962, 2-238: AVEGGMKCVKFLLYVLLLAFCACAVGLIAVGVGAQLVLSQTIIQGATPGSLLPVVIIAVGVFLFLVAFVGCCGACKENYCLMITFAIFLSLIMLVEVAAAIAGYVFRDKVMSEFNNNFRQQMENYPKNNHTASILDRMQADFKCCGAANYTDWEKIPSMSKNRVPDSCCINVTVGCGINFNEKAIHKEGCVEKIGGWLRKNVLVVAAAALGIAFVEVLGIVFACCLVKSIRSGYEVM

“ACGGGCCACATCAACTCATTGATAGACAATGCGTCCACTGCCCGTTTTTTTTTTTTTTTGACGCTAATAGTTAAGACGCT [Apt-PD-L1]”: binds (PD-L1 on A549 exosomes).

“ATATACACCCCACCTCGCTCCCGTGACACTAATGCTATTTTTTTTTTTTTTTGACGCTAATAGTTAAGACGCTT [Apt-CD63]”: binds (CD63 on SH-SY5Y exosomes [1]).

CTTTTCGGGATTTATGC [MU-Cy5]: no binding (CD63 on SH-SY5Y exosomes [2]).

“TCTAAAAGGATTCTTCCCAAGGGGATCCAATTCAAACAGCTTTTTTTTTTTTTTTGACGCTAATAGTTAAGACGCT [Apt-HER2]”: binds (HER2 on A549 exosomes).

— article PMC11117858
